PubChem BioAssay AID493246, Drosophila RNAi Screening Center – 2011

Screen: 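Genes fly cells need to grow and stay alive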 (primary screen)
System: Drosophila Kc and S2R+ cells
Reagent: long dsRNA against Drosophila genes
Measurement: 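Cell number per well after knock-down, printed as raw plate values; calls were based on per-plate z-scores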
Reading the numbers: Kc cell number and S2R+ cell number: higher = more cells remaining
Active means: 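Counted as a hit if cell number falls by a z-score of at least 3 within its plate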
The deposit covers about 21,000 reagents; below is a random part of those that have a named target and a result. Over the whole deposit, 429 (2%) are marked active. 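Values are raw and not normalised between plates; calls rest on per-plate z-scores that were not deposited.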 A number with no mark means an inactive call. The numbers tell different reagents against one gene apart. Reagent sequences are not shown. Not stated in the record: the amount of reagent, the time to read-out.

no.	gene	reagent	Kc cell number, rep 1	Kc cell number, rep 2	S2R+ cell number, rep 1	S2R+ cell number, rep 2
1	Acp32CD (GeneID 34531)	1	1.55e6	1.67e6	1.29e6	1.43e6
2	vanin-like (GeneID 31551)	1	1.11e6	1.41e6	1.07e6	1.06e6
3	CG9132 (GeneID 2768881)	1	1.64e6	1.73e6	1.02e6	1.16e6
4	Cpr65Ec (GeneID 38775)	1	1.45e6	1.27e6	1.27e6	1.44e6
5	Naxe (GeneID 31944)	1	1.59e6	1.48e6	1.08e6	1.22e6
6	Samtor (GeneID 37934)	1	1.44e6	1.51e6	1.19e6	1.33e6
7	CG3348 (GeneID 50082)	1	1.51e6	1.58e6	1.06e6	1.20e6
8	CG11686 (GeneID 50024)	1	1.38e6	1.36e6	1.09e6	1.23e6
9	Klp31E (GeneID 34422)	1	1.38e6	1.42e6	1.14e6	1.18e6
10	Cdc5 (GeneID 38062)	1	1.28e6	1.38e6	1.03e6	1.12e6
11	thoc5 (GeneID 37810)	1	1.35e6	1.43e6	1.11e6	1.12e6
12	Rpn5 (GeneID 40717)	1	1.21e6	1.30e6	1.01e6	1.09e6
13	Cp19 (GeneID 39000)	1	1.35e6	1.29e6	1.14e6	1.16e6

Next part, starting with the last 3 of the part before.
no.	gene	reagent	Kc cell number, rep 1	Kc cell number, rep 2	S2R+ cell number, rep 1	S2R+ cell number, rep 2
11	thoc5 (GeneID 37810)	1	1.35e6	1.43e6	1.11e6	1.12e6
12	Rpn5 (GeneID 40717)	1	1.21e6	1.30e6	1.01e6	1.09e6
13	Cp19 (GeneID 39000)	1	1.35e6	1.29e6	1.14e6	1.16e6
14	Herc4 (GeneID 38151)	1	1.71e6	1.65e6	1.01e6	1.44e6
15	CG11674 (GeneID 32374)	1	5.88e5		7.68e5	
16	CG2926 (GeneID 40676)	1	1.65e6	1.67e6	1.02e6	1.08e6
17	upSET (GeneID 39551)	1	8.66e5 (active)	1.05e6	8.06e5	8.99e5
18	Osi23 (GeneID 43615)	1	1.67e6	1.65e6	1.06e6	1.19e6
19	CG13675 (GeneID 38907)	1	1.41e6	1.40e6	8.81e5	1.00e6
20	CG13675 (GeneID 38907)	2	1.02e6 (active)	1.05e6	6.08e5	7.02e5
21	CG7239 (GeneID 33809)	1	7.55e5	1.13e6	2.27e5	3.00e5
22	Ms (GeneID 44324)	1	1.45e6	1.56e6	1.08e6	1.17e6
23	CG34187 (retired record) (GeneID 5740579)	1	1.47e6	1.44e6	1.01e6	1.16e6
24	CG15362 (GeneID 33371)	1	1.48e6	1.53e6	1.06e6	1.22e6
